Source: publication PMC7271899, “Bayesian modeling reveals metabolite‐dependent ultrasensitivity in the cyanobacterial circadian clock” (Molecular Systems Biology, 2020)
No constants are given. Whether binding was seen depends on the method and setting.

Molecular target: N-terminal domain of KaiA (residues 1-135) (Synechococcus elongatus) (UniProt Q79PF6)
Assay: SEC; Superdex 75 1660 prep grade column, step of the purification after Ni-NTA; both purified

B1: N-terminal domain of KaiA (residues 1-135) (domain or fragment, UniProt Q79PF6 1-135)
chain: MLSQIAICIWVESTAILQDCQRALSADRYQLQVCESGEMLLEYAQTHRDQIDCLILVAANPSFRAVVQQLCFEGVVVPAIVVGDRDSEDPDEPAKEQLYHSAELHLGIHQLEQLPYQVDAALAEFLRLAPVETMA
B1 was tested. Which binding did it give?
The binding was “no binding”.
